The values that follow come from PMC12040169 (PLOS Biology, 2025).

The other results are listed elsewhere or left out.

The assay concerns T1, CTL2-GFP (C. trachomatis L2/434/Bu, GFP-expressing).
T1 construct: L2/434/Bu, GFP-expressing
Also noted: species or system HeLa; Intracellular C. trachomatis growth in HeLa cells, bulk GFP fluorescence relative to DMSO. The note with it: bulk GFP, single well; 28.5 h, 10 µM; inhibitor.
`COc1cccc(-c2nn(CCC#N)cc2C(=O)N2CCCCC2)c1` [CBK305942]: the “% of control remaining” value stood at 96.5529%.

For `O=C(O)c1ccc(N2N=C(c3ccccc3)/C(=C\c3cccc([N+](=O)[O-])c3O)C2=O)cc1` [CBK265615], the “% of control remaining” value amounted to 117.893%. Take `COc1ccc(CN2CCCc3c(C)nc(C4CCCN(C(=O)C5CCC5)C4)nc32)cc1` (stereo not drawn) [CBK286117]: the “% of control remaining” value was found to be 75.6242%. With `O=c1ccc(O)nn1CN1CCN(Cc2ccccc2)CC1` [CBK265539], the “% of control remaining” value was 125.849%. For `C/C(=N\NC(N)=S)C(=O)O` [CBK261575], the “% of control remaining” value was 48.8317%. Then `COc1cccc(CCN(Cc2ccc(S(=O)(=O)N3CCOC3=O)cc2)Cc2cccc(OCCO)c2)c1` [CBK014806], with 106.507%. `CC(C)c1ccc(S(=O)(=O)NCCc2ccccc2)cc1` [CBK044426]: the “% of control remaining” value turned out to be 136.924%. With `COc1ccccc1NC(=O)N1C[C@@H]2C[C@H](C1)c1c(-c3cccc(C#N)c3)ccc(=O)n1C2` [CBK289197] the figure was 141.674%. Take `CN1CCN(c2ccc(-c3cncc(NCCc4ccccn4)n3)cn2)CC1` [CBK037135]: the “% of control remaining” value came to 130.295%. `Cc1ccc2c(c1)C1(CC(=O)N(C)C1=O)C(=O)N2CCOc1cccc2c1OCCO2` (stereo not drawn) [CBK075529]: the “% of control remaining” value is on record as 140.33%. Then `N#CC1CCCc2c1[nH]c1ccc(Br)cc21` (stereo not drawn) [CBK026475], with 51.564%. As to `Cc1cc(OCC(=O)N2CCN(c3ccccc3F)CC2)no1` [CBK305898], the “% of control remaining” value was determined as 118.577%. With `c1ccc(Cn2cc(-c3cnc(N4CCOCC4)c4nccn34)cn2)cc1` [CBK091289] the figure was 139%; with `C=CCn1ncc(CN2CCC3(O)CCCCC3C2)c1C` (stereo not drawn) [CBK283029], 135.407%; with `CC(O)CNCCCOc1ccccc1-c1ccccc1` (stereo not drawn) [CBK268633G], 176.046%.

With `Oc1cc(C(F)(F)F)nc(NCc2ccc3ccccc3c2)n1` [CBK003459], the “% of control remaining” value was 91.1516%.

As to `O=C(c1ccc2[nH]c(=O)[nH]c2c1)N1CCC(Cn2cncn2)(C2CCCCC2)CC1` [CBK136824], the “% of control remaining” value was found to be 121.917%.

With `CC(C)(C)c1nc(-c2ccccc2)c2ccccn12` [CBK149256], the “% of control remaining” value is given as 98.6159%. Then `O=c1[nH]c(SCc2n[nH]c(=S)n2-c2ccccc2)nc2sc3c(c12)CCCC3` [CBK300538], with 92.6676%; and `COc1cccc(-c2nnnn2[C@H]2CO[C@H]3[C@@H]2OC[C@@H]3NC(=O)c2ccc(C)cc2)c1` [CBK289512], with 105.129%; and `COc1cccc(-c2nc(-c3ccc4[nH]c(=O)[nH]c4c3)cs2)c1OC` [CBK298271], with 137.286%. Regarding `Cc1cc(C)nc(N2CCN(C(=O)CCC(=O)NCc3cccc(C(F)(F)F)c3)CC2)n1` [CBK022261], the “% of control remaining” value turned out to be 144.588%. As for `O=C(O)CC1COCCN1Cc1ccc(Cn2cccn2)cc1` (stereo not drawn) [CBK306827], the “% of control remaining” value was found to be 146.044%.

As for `CCC(C(=O)N1CCC(C(=O)c2cccnc2)CC1)c1ccccc1` (stereo not drawn) [CBK283525], the “% of control remaining” value is recorded as 116.822%. With `CC(=O)N1c2ccc(-c3cc4ccccn4c3)cc2CC1C` (stereo not drawn) [CBK285254] the figure was 138.779%; with `Oc1ccc(SCCCCN2CCCCC2)cc1` [CBK033676], 92.9606%; with `CC(=O)N1CCC(c2cc(-c3cccc(F)c3)n(C)n2)CC1` [CBK282097], 113.15%. As for `COc1ccc(-n2ncc(-c3ccc(Br)cc3F)n2)cc1OC` [CBK112915], the “% of control remaining” value was determined as 115.093%. Then `OCc1ccccc1-c1cnc(N2CCOCC2)c2nccn12` [CBK091265], with 107.804%; and `COC(=O)C[C@@H](C)NC(=O)[C@](OC)(c1ccccc1)C(F)(F)F` [CBK017864], with 115.119%; and `NC1=C(c2ccccc2)C(=O)CN1NC(=O)COc1ccccc1-c1ccccc1` [CBK269258], with 98.1563%. Take `CN1CCN(C(=O)c2ccccc2NC(=O)c2ccc(C(C)(C)C)cc2)CC1` [CBK270054]: the “% of control remaining” value amounted to 153.797%. As for `Cc1ccc(-n2sc(=O)n(CCc3ccccc3)c2=O)cc1` [CBK113496], the “% of control remaining” value worked out at 77.4223%. As to `Cc1nc(C)n(CC2CN(Cc3cn4ccccc4n3)CCO2)n1` (stereo not drawn) [CBK303999], the “% of control remaining” value is on record as 148.488%. In the case of `O=C(CN1CCCC1c1cccs1)Nc1cccc(C(=O)NC2CC2)c1` (stereo not drawn) [CBK305895], the “% of control remaining” value is listed as 76.3591%.

For the compound `CCN(CC(C)C#N)C(=O)c1cc2ccccc2oc1=O` (stereo not drawn) [CBK305992], the “% of control remaining” value worked out at 130.945%.

Turning to `Cc1nnc(N2CCN(Cc3sccc3Cl)CC2)nc1C` [CBK304075], the “% of control remaining” value amounted to 129.774%.

Regarding `O=C(O)COc1ccccc1/C=N/n1c(S)nnc1-c1ccc(Cl)cc1Cl` [CBK264418], the “% of control remaining” value was determined as 128.818%. On to `Cc1csc(C2CN(Cc3cn(C)c(=O)n(C)c3=O)CCO2)n1` (stereo not drawn) [CBK305475], for which the “% of control remaining” value came out at 104.176%. For the compound `CC(=O)Cn1c(CN2CCOCC2)nc2c1c(=O)n(C)c(=O)n2C` [CBK269508], the “% of control remaining” value is 122.991%. With `CN1CCN(c2nc(Nc3ccc(Cl)cc3)nc(Oc3ccccc3)n2)CC1` [CBK004778], the “% of control remaining” value was 82.5563%. Turning to `O=C(c1ccccc1)c1ccc2[nH]c(-c3ccc(NC(=O)c4ccccc4Cl)cc3)nc2c1` [CBK262706], the “% of control remaining” value is reported as 82.4346%.

As to `OC1(c2cccnc2F)CCN(Cc2ccccc2F)CC1` [CBK284372], the “% of control remaining” value was found to be 118.333%. As to `O=C(NCC1(c2ccccc2)CCOCC1)c1ccno1` [CBK067408], the “% of control remaining” value was found to be 106.217%. Then `CCN(CC)C(=O)C1C2CCC3(CC(=O)c4ccccc4O3)C21` (stereo not drawn) [CBK284923], with 59.7605%; and `C=C(C)Cn1c(SCC(=O)O)nnc1-c1ccc([N+](=O)[O-])cc1` [CBK263159], with 100%; and `O=C(O)c1ccccc1NC(=S)NC(=O)c1ccccc1[N+](=O)[O-]` [CBK264963], with 119.383%.

For the compound `CS(=O)(=O)N(Cc1ccccc1)c1ccc(C(=O)Nc2ccc3c(c2)OCO3)cc1` [CBK033562], the “% of control remaining” value is 110.992%. Consider `Cn1c(=O)[nH]c(=O)c2[nH]c(CN3CCN(Cc4ccccc4)CC3)nc21` [CBK269592], for which the “% of control remaining” value came out at 147.959%. With `O=C1CC2(CCN(S(=O)(=O)c3ccc(F)cc3)CC2)CN1` [CBK283353] the figure was 115.457%; with `COc1cc(C2C(C(=O)c3ccc(C)o3)=C(O)C(=O)N2Cc2cccnc2)cc(OC)c1OC` (stereo not drawn) [CBK264933], 97.2363%; with `Cc1noc(C)c1C(=O)N1CCCC(c2nc(C)n3ccsc23)C1` (stereo not drawn) [CBK285211], 107.165%. Then `CCCc1onc(S(=O)(=O)c2ccc(C)cc2)c1NC` [CBK020322], with 158.057%; and `O=C(c1cc2c(s1)CCC2)N1CCn2c(nnc2C2CC2)C1` [CBK283770], with 119.935%; and `CCc1nnc(SCC(=O)Nc2cc(OC)ccc2OC)[nH]1` [CBK270167], with 110.268%. With `c1cncc(-c2noc(-c3cc(C4CC4)[nH]n3)n2)c1` [CBK287973] the figure was 128.617%; with `NS(=O)(=O)c1ccc(Cn2c(=O)[nH]c3ncc(-c4ccco4)nc32)cc1` [CBK064948], 106.43%; with `Cc1c(C)c2c(O)n(-c3ccccc3)nc2[nH]c1=O` [CBK287891], 115.252%. As to `COc1ccc(Oc2cncc(OC3CCN(CC4CCCCC4)C3)n2)cc1OC` (stereo not drawn) [CBK084413], the “% of control remaining” value was found to be 100.527%. Then `Cc1cc(C)cc(N(C(C)C(=O)N2CCN(Cc3ccc4c(c3)OCO4)CC2)S(C)(=O)=O)c1` (stereo not drawn) [CBK269060], with 114.316%; and `CCOc1ccc(S(=O)(=O)N2CCN(Cc3cc(F)c(F)c(F)c3)CC2)c2cccnc12` [CBK062795], with 63.5955%. With `N[C@H]1C[C@H]2C(=O)NC[C@@H](CCC(=O)NCc3cccs3)N2C1` [CBK289005] the figure was 144.09%; with `CC(Oc1cc(Cl)ccc1Cl)c1nnc(S)n1C` (stereo not drawn) [CBK288376], 112.652%; with `CC(Oc1cccc2ccccc12)C(=O)NN` (stereo not drawn) [CBK261209], 101.962%.

Consider `CCn1c(Cc2c(C)[nH]c3ccccc23)nnc1SCC(=O)NC12CC3CC(CC(C3)C1)C2` [CBK267529], for which the “% of control remaining” value amounted to 115.193%. Then `CCN(CC)CCSc1nc2sc3c(c2c(=O)n1-c1ccc(OC)cc1)CCCC3` [CBK263308], with 127.59%; and `CC1(C)CC(=O)C=C(C(=O)Nc2ccccc2N2CCCNCC2)O1` [CBK038935T], with 67.9152%. With `C=CCNC(=S)Nc1sc2c(c1C(=O)OCC)CC(C)CC2` (stereo not drawn) [CBK268778] the figure was 158.752%.

Take `Nc1nc(SCCc2ccccc2)nc2sc3c(c12)CCCC3` [CBK263445]: the “% of control remaining” value came to 100%. Take `Cc1ccc2nc(NCCC(=O)O)nc(-c3ccccc3)c2c1` [CBK266537]: the “% of control remaining” value is on record as 147.415%. Then `CN(C)c1cccc(-c2ccc(Nc3ccc(N4CCOCC4)cc3)nc2)c1` [CBK037735], with 157.357%. With `N#CCSc1nc(-c2cccnc2)ccc1C(=O)O` [CBK269387] the figure was 96.5943%; with `CC(C)(C)OC(=O)N1CCC(Sc2ccc(-c3ccco3)cc2)CC1` [CBK122552], 112.274%. On to `O=C(CSc1nnc(CN2CCOCC2)n1-c1ccc(Cl)cc1)N1CCN(c2ccccc2)CC1` [CBK269088], for which the “% of control remaining” value was 134.013%. On to `CC(Sc1nc(N)cc(=O)[nH]1)C(=O)Nc1ccc(S(N)(=O)=O)cc1` (stereo not drawn) [CBK266191], for which the “% of control remaining” value came to 143.007%. With `Cc1ccc(SC(C)C(=O)Nn2cnnc2)cc1` (stereo not drawn) [CBK268570] the figure was 151.067%.

Consider `COc1cc(C(CC(C)NC(C)(C)C)c2ccccc2)ccc1OCc1ccccc1` (stereo not drawn) [CBK017901], for which the “% of control remaining” value amounted to 111.043%. With `CCn1cc(CN(CC(C)C)C(=O)c2c(C)nc3ccccn23)cn1` [CBK306862] the figure was 118.158%.
